doi:10.1101/2020.02.28.969832
No constants are given. Whether binding was seen depends on the method and setting. In cells and extracts the contact can be indirect. Some binding calls cover weakened binding; strength is not graded here. For some assays here: Tags and fused reporters may be left off the sequences shown.

By UniProt entry, the sequences of proteins in these tests, tags left out.
UniProt Q99J83, whole entry: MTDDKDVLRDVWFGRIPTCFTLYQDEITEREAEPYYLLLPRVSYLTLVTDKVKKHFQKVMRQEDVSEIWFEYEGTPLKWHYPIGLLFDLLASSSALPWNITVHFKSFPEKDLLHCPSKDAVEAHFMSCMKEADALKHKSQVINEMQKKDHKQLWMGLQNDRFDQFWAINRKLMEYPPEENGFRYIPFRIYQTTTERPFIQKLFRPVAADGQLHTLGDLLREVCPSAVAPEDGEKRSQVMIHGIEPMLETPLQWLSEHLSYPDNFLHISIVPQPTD
UniProt Q9CQY1, whole entry: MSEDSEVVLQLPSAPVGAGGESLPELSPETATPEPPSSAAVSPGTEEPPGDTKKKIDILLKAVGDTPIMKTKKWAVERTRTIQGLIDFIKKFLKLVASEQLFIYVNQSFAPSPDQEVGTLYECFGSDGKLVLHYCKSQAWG
UniProt O94817, whole entry: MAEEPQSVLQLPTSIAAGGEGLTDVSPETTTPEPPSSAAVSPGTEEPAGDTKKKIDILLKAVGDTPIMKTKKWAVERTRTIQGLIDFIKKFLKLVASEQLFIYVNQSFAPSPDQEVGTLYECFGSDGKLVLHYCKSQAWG

Assays:
Experiment in all cases: co-IP
[1] = molecular target: FLAG-MSR1 (human) aa51-end, extracellular C-terminal part with a transmembrane domain (human) (UniProt P21757)
[2] = molecular target: T1, FLAG-MSR1 (human), full-length (human) (UniProt P21757)
T1 sequence: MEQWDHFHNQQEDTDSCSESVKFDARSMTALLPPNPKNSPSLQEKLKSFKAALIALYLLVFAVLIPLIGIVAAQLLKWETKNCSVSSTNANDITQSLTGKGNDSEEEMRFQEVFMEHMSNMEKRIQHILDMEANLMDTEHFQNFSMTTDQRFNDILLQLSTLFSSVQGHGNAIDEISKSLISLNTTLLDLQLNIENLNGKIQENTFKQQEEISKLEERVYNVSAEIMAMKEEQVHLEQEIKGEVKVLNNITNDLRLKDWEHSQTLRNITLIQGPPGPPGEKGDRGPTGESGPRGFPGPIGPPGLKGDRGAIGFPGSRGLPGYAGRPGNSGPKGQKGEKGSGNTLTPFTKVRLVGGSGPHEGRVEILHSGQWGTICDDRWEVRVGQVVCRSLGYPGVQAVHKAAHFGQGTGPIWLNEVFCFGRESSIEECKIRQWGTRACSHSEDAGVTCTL

[3] = molecular target: FLAG-MSR1 (human) aa1-50, cytoplasmic N-tail (human) (UniProt P21757)
[4] = molecular target: T2, FLAG-Msr1 (mouse) (mouse) (UniProt P30204)
T2 sequence: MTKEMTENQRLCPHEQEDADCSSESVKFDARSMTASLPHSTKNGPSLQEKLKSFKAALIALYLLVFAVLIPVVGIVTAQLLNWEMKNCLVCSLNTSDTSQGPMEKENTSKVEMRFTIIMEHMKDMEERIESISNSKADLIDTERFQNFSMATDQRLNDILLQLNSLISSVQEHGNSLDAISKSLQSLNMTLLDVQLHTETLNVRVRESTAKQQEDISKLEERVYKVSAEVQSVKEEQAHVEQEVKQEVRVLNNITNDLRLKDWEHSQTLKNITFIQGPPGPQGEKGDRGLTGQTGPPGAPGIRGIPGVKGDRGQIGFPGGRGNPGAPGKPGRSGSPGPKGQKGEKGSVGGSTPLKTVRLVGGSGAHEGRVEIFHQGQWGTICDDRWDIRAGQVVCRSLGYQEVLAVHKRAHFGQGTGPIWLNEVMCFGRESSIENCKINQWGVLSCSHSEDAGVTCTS

[5] = molecular target: T3, endogenous Msr1 (mouse, bone marrow-derived macrophages) (mouse (endogenous in BMDMs)) (UniProt P30204)
T3 sequence: T2 sequence

[6] = molecular target: FLAG-Atg5 (mouse) (mouse) (UniProt Q99J83)
[7] = molecular target: FLAG-Atg12 (mouse) (mouse) (UniProt Q9CQY1)

For “endogenous human ATG12 (of the ATG5-ATG12 complex) (from UniProt O94817 1-140)”, the binding [1] was “no binding”, the binding [2] was “binds” and the binding [3] was “binds”. The binding [4] was “binds”.

For “endogenous mouse Atg5 (of the Atg5-Atg12 complex) (from UniProt Q99J83 1-275)”, the binding [5] was “binds”.

In the case of “endogenous mouse Atg12 (of the Atg5-Atg12 complex) (from UniProt Q9CQY1 1-141)”, the binding [5] is reported as “binds”.

B1: Myc-Msr1 (mouse) (receptor, UniProt P30204 1-458)
chain: T2 sequence
For B1, the binding [6] was “binds” and the binding [7] was “binds”.
